In PubChem BioAssay AID248 (DTP/NCI, 2004):
The list shows only some results of the screen, not a fair sample: it is rich in T/C values a quarter to a half above the control, in often repeated tests (any T/C) and in doses without a T/C. Further doses and runs are listed elsewhere. T/C gives the treated animals as a percentage of the vehicle group. Some doses have a count of surviving animals in place of a T/C: the source files T/C as zero there, which appears to mark a toxic dose or a test without result, not a measured value. Some doses without a T/C left all or most animals alive at the check, yet need not have been tolerated: survival well below the control is almost never listed, so the zero probably covers shortened survival too. Counts of survivors are from the toxicity check (mostly the fifth day) where no day follows; animals may have died later. Schedules are NCI's codes, read here as Q, the interval in days (D) or hours (H), X, the number of doses. Some doses were run more than once; the values are given in rising order. Some schedules carry Z or #; the key to these is not given. Where survival is the endpoint, the PubChem record calls one and a half times the control and up active, and a quarter to a half above the control has no call in these data; cut-offs in other NCI protocols can differ. Some T/C values carry the count of animals alive at the toxicity check (mostly the fifth day); where none is given, no animal had died by that day.

Test system: L1210 leukemia ip in BDF1 mice, survival T/C
Assay: NCI In Vivo Anticancer Drug Screen. Data for tumor model L1210 Leukemia (intraperitoneal) in B6D2F1 (BDF1) mice
Conditions: T/C endpoint: mean survival time, higher T/C = longer survival
[1] = dose: 400.0 mg/kg/injection, schedule: Q01DX009 (ip), vehicle: saline with Tween-80
[2] = dose: 200.0 mg/kg/injection, schedule: Q04DX003 (ip), vehicle: Klucel (hydroxypropylcellulose) (HPC)

For `CC(C)C(C)/C=C\C(C)C1CCC2C3=CCC4CC(=O)CCC4(C)C3CCC21C` (centres undefined), the survivor count (dose: 100.0 mg/kg/injection, schedule: Q01DX001 (ip), vehicle: Klucel (hydroxypropylcellulose) (HPC)) was 3 of 3 and the survivor count (dose: 200.0 mg/kg/injection, schedule: Q01DX001 (ip), vehicle: Klucel (hydroxypropylcellulose) (HPC)) was 3 of 3.

With `CCOC(=O)c1nc(NC)sc1N` the survivor count (dose: 100.0 mg/kg/injection, schedule: Q01DX009 (ip), vehicle: saline) was 3 of 6, the survivor count (dose: 200.0 mg/kg/injection, schedule: Q01DX009 (ip), vehicle: saline) was 4 of 6 and the survivor count (dose: 400.0 mg/kg/injection, schedule: Q04DX003 (ip), vehicle: saline) was 0 of 6.

With `O=C(O)CCCc1ccc([N+](=O)[O-])cc1Cl` the survivor count [1] was 2 of 6.

With `Oc1ccc2ccccc2c1-c1c(O)ccc2ccccc12` the survivor count (dose: 400.0 mg/kg/injection, schedule: Q01DX009 (ip), vehicle: Klucel (hydroxypropylcellulose) (HPC)) was 6 of 6.

`Nc1cc(Cl)c(S(=O)(=O)O)cc1Cl` was tested, and the survivor count (dose: 400.0 mg/kg/injection, schedule: Q01DX001 (ip), vehicle: saline) was 2 of 4.

For `CC(C)CC(Br)C(=O)NCC(=O)NC(Cc1ccccc1)C(=O)O` (centres undefined), the survivor count [1] was 6 of 6.

`Nc1ccc(C(=O)N/N=C/c2ccccc2[N+](=O)[O-])cc1` was tested, and the survivor count (dose: 50.0 mg/kg/injection, schedule: Q01DX009 (ip), vehicle: other) was 5 of 5, the survivor count (dose: 100.0 mg/kg/injection, schedule: Q01DX009 (ip), vehicle: other) was 5 of 5 and the survivor count (dose: 200.0 mg/kg/injection, schedule: Q01DX009 (ip), vehicle: other) was 4 of 5.

With `O=C(Nc1ccc(C2=NCCCN2)cc1)c1ccc(C(=O)Nc2ccc(C3=NCCCN3)cc2)cc1` the T/C (dose: 1.0 mg/kg/injection, schedule: Q01DX010 (ip), vehicle: other) was 136 % of control [5 of 6 alive], the T/C (dose: 2.0 mg/kg/injection, schedule: Q01DX010 (iv), vehicle: saline) was 141 % of control and the T/C (dose: 4.0 mg/kg/injection, schedule: Q01DX010 (sc), vehicle: olive oil, sesame oil, peanut oil) was 148 % of control. The T/C (dose: 8.0 mg/kg/injection, schedule: Q01DX010 (ip), vehicle: other) was 128 % of control, the T/C (dose: 8.0 mg/kg/injection, schedule: Q01DX010 (sc), vehicle: olive oil, sesame oil, peanut oil) was 130 % of control and the survivor count (dose: 8.0 mg/kg/injection, schedule: Q01DX Z (iv), vehicle: other) was 0 of 6. The T/C (dose: 14.2 mg/kg/injection, schedule: Q01DX Z (ip), vehicle: carboxymethylcellulose (CMC)) was 135 % of control, the survivor count (dose: 16.0 mg/kg/injection, schedule: Q01DX010 (ip), vehicle: other) was 0 of 6 and the T/C (dose: 16.0 mg/kg/injection, schedule: Q01DX010 (ip), vehicle: saline) was 131 % of control. For the same compound, the survivor count (dose: 16.0 mg/kg/injection, schedule: Q01DX Z (iv), vehicle: other) was 0 of 6, the T/C (dose: 21.3 mg/kg/injection, schedule: Q01DX Z (ip), vehicle: carboxymethylcellulose (CMC)) was 138 % of control and the survivor count (dose: 62.5 mg/kg/injection, schedule: Q01DX010 (sc), vehicle: olive oil, sesame oil, peanut oil) was 6 of 6. For the same compound, the T/C (dose: 125.0 mg/kg/injection, schedule: Q01DX010 (oral), vehicle: other) was 127 % of control, the survivor count (dose: 125.0 mg/kg/injection, schedule: Q01DX010 (sc), vehicle: olive oil, sesame oil, peanut oil) was 0 of 6 and 6 of 6 and the T/C (dose: 133.0 mg/kg/injection, schedule: Q#A X Z (oral), vehicle: saline) was 132 % of control. For the same compound, the T/C (dose: 222.0 mg/kg/injection, schedule: Q## X010 (oral), vehicle: saline) was 126 % of control, the T/C (dose: 240.0 mg/kg/injection, schedule: Q01DX Z (oral), vehicle: carboxymethylcellulose (CMC)) was 128 % of control [5 of 6 alive] and the survivor count (dose: 250.0 mg/kg/injection, schedule: Q01DX010 (sc), vehicle: olive oil, sesame oil, peanut oil) was 6 of 6. For the same compound, the T/C (dose: 266.0 mg/kg/injection, schedule: Q01DX Z (oral), vehicle: saline) was 125 % of control, the T/C (dose: 300.0 mg/kg/injection, schedule: Q#A X Z (oral), vehicle: saline) was 129 % of control and the survivor count (dose: 500.0 mg/kg/injection, schedule: Q01DX001 (im), vehicle: steroid suspending solution) was 3 of 6. For the same compound, the T/C (dose: 1800.0 mg/kg/injection, schedule: Q03DX Z (oral), vehicle: saline) was 129 % of control.

With `COc1cccc(/C=N/Nc2nnc(N/N=C/c3cccc(OC)c3)c3ccccc23)c1` the survivor count (dose: 400.0 mg/kg/injection, schedule: Q01DX001 (ip), vehicle: carboxymethylcellulose (CMC)) was 2 of 4.

`CCCOC(=O)c1ccc([N+](=O)[O-])o1` was tested, and the survivor count (dose: 400.0 mg/kg/injection, schedule: Q01DX001 (ip), vehicle: Klucel (hydroxypropylcellulose) (HPC)) was 3 of 6.

For `COc1ccc2c(c1)N(CCC1CCCCN1C)c1ccccc1S2` (centres undefined), the T/C (dose: 25.0 mg/kg/injection, schedule: Q01DX009 (ip), vehicle: saline) was 126 % of control [5 of 6 alive], the survivor count (dose: 50.0 mg/kg/injection, schedule: Q01DX009 (ip), vehicle: saline) was 0 of 6 and 3 of 6 and the survivor count (dose: 100.0 mg/kg/injection, schedule: Q04DX003 (ip), vehicle: saline) was 3 of 6 and 6 of 6.

`Cc1cc2nc(N)sc2cc1C` was tested, and the survivor count (dose: 50.0 mg/kg/injection, schedule: Q01DX009 (ip), vehicle: Klucel (hydroxypropylcellulose) (HPC)) was 6 of 6, the survivor count (dose: 100.0 mg/kg/injection, schedule: Q01DX009 (ip), vehicle: Klucel (hydroxypropylcellulose) (HPC)) was 6 of 6 and the survivor count [2] was 6 of 6.

For `CN(NC(=O)c1ccccc1)C(=O)c1ccccc1`, the T/C [2] was 126 % of control and the survivor count (dose: 400.0 mg/kg/injection, schedule: Q04DX003 (ip), vehicle: Klucel (hydroxypropylcellulose) (HPC)) was 6 of 6.
